“And” between values parts separate entries of the source, which are not always exact repeats. Equal values may be shown once.
Assay: Directional solvent extraction (DSE) desalination cycle, moderate / seawater-salinity NaCl feed
Settings: for Na+ residual in IL: ion residue in IL after DSE, measured by Na+ concentration; for H2O yield (%/° C.): seawater salinity feedwater; for water yield: Table 2, DSE screening of less compatible ILs

| SMILES | Na+ residual in IL | H2O yield (%/° C.) | water yield | recovered Na+ concentration in product water (feeding saline with Na+ concentration 13700 ppm) |
| --- | --- | --- | --- | --- |
| CC[n+]1ccn(C)n1 [[1,2,3-emtriz][Tf2N], 1-ethyl-3-methyl-1,2,3-triazolium bistriflimide] | ~330 ppm | 0.19 %/° C. | – | – |
| CCCCCCCC[P+](CCCC)(CCCC)CCCC [[P4448][Tf2N]] [Tributyloctylphosphonium bis(trifluoromethanesulfonyl)imide] | – | – | water yield (<0.005%/° C.) | – |
| CCCCCCCCCCCCCC[P+](CCCCCC)(CCCCCC)CCCCCC [[P66614][Tf2N], Trihexyltetradecylphosphonium bis(trifluoromethanesulfonyl)imide] | – | – | water yield (<0.012%/° C.) | – |
| COC[n+]1ccn(C)c1 [[mommim][Tf2N], 1-(methoxymethyl)-3-methyl-1H-imidazol-3-ium bis(trifluoromethylsulfonyl)imide] | ~520 ppm | 0.24 %/° C. and 0.24%x %/° C. | – | 926 ppm |

From US20240391800A1, “HYPERSALINE DESALINATION USING IONIC LIQUIDS AND LOW-TEMPERATURE HEAT” (UNIVERSITY OF NOTRE DAME DU LAC, priority 2021, published 2024)
